These are yes or no findings as the source states them, for the method shown. Binding seen in cells or lysates may run through a third protein. Some entries that bind do so weakly or less than the wild type.
Target: T1, PIWIL4 (human (endogenous in HMEC-1)) (UniProt Q7Z3Z4)
T1 sequence: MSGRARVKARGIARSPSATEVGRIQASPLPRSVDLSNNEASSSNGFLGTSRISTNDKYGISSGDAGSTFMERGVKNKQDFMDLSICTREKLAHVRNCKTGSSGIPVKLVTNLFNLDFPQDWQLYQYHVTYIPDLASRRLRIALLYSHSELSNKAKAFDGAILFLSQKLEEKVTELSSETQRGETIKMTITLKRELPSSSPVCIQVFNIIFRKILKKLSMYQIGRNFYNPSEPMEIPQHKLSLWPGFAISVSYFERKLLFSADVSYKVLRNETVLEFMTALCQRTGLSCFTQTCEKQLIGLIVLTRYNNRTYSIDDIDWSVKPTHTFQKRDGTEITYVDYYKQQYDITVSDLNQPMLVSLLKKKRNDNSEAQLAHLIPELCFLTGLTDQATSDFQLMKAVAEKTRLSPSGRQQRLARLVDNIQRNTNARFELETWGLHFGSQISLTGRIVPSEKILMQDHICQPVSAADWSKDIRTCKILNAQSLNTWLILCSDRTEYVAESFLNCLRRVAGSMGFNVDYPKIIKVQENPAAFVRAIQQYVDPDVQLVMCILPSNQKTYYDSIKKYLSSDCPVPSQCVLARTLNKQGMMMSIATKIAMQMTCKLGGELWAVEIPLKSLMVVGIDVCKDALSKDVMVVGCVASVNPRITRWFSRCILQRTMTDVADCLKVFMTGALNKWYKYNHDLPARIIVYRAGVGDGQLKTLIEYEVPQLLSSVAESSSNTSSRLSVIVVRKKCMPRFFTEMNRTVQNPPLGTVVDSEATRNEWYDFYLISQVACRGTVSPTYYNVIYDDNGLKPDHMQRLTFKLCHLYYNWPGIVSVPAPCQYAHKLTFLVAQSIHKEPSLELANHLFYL
Experiment: co-IP; lysates of HMEC-1 cells treated with conditioned medium from MDA-MB-231 cells (also from MDA-MB-231 cells with piR-31115 knockdown: binding diminished); immunoprecipitation with anti-PIWIL4 antibody on Protein A+G magnetic beads, western blot; IgG as negative control

Protein sequences, listed by entry. Tags and fused reporters are not part of them.
UniProt Q86U44: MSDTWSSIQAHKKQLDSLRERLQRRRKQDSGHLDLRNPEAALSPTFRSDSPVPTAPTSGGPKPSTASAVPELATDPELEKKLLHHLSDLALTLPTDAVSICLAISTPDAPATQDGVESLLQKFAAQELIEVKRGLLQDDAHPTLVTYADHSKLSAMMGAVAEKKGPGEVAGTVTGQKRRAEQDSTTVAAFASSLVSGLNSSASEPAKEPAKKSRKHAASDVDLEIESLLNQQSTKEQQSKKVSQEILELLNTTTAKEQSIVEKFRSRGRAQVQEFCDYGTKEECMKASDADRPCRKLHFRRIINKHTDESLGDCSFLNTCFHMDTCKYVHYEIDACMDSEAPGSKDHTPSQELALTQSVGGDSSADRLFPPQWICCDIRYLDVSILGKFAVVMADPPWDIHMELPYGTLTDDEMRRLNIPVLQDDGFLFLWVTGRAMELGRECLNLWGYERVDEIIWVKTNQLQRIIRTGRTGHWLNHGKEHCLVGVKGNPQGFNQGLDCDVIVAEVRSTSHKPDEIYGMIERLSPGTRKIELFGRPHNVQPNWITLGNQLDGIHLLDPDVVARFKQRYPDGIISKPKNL

METTL3 (from UniProt Q86U44 1-580)
binding: binds
